For at least one compound, name, drawing or mass did not settle the structure.
Target: MMP-8 (Homo sapiens, UniProt P22894)
Experiment: Coated fabric tested against MMP-8
Assay type: biochemical
Conditions: both examples (SSEBS and sulfonated SIBS coated fabrics), —SO3−Dox+ layer over entire —SO3−Na+ layer

By UniProt entry, the sequences of proteins in these tests, tags left out. Residues count along the entry.
UniProt P22894, 101-467, species assumed: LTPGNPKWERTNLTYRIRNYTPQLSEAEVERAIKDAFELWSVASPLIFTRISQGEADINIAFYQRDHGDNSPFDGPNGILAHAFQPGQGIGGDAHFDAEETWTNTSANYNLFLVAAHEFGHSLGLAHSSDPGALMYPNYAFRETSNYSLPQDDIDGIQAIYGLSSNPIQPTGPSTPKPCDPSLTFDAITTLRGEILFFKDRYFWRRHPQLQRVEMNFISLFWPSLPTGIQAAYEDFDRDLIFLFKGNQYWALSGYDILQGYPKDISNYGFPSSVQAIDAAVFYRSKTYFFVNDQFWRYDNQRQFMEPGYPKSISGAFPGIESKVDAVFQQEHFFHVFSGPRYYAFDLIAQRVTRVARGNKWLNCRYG

C[C@H]1c2cccc(O)c2C(=O)C2=C(O)[C@]3(O)C(=O)C(C(N)=O)=C(O)[C@@H](N(C)C)[C@@H]3[C@@H](O)[C@@H]21 [doxycycline]
effectiveness against MMP-8: effective

— patent US20060292208A1, “Sulfonated styrene polymers for medical articles and barrier web constructs” (Aegis Biosciences, LLC, priority 2004, published 2006)
